Measured values: US20240368667A1, “RAPID, LABEL-FREE ANTIBIOTIC SUSCEPTIBILITY OF BACTERIA DIRECTLY FROM POSITIVE BLOOD OR BODILY FLUID/CULTURE” (priority 2021, published 2024)
For at least one compound, name, drawing or mass did not settle the structure.

Test system: P. aeruginosa 77
Test: Microbroth dilution MIC with and without sucrose recovery
Format: cell-based, Pseudomonas aeruginosa
Settings: MIC given as multiple of S/I/R
Description: Microbroth dilution for minimum inhibitory concentrations (MIC) with and without sucrose recovery. To isolate bacteria without sucrose, culture media from positive BacT/alert FA PLUS aerobic culture bottles (bioMérieux, Durham, NC) was serially diluted and plated onto LB agar (Lennox; Sigma-Aldrich, St. Louis, MO). Bacterial suspensions were prepared by resuspending colonies in CAMHB with incubation on a MaxQ 4000 incubator shaker (Thermo Fisher Scientific, Waltham, MA) at 37° C. and ˜225 rpm for 3 hours. Bacteria recovered via Method 2 were diluted 10-fold in CAMHB. Following incubation or sucrose recovery and dilution, bacterial suspensions were adjusted to ˜0.004 OD600 with CAMHB and a 50-μL aliquot distributed to each well of a 96-well plate containing CAMHB with and without clinically relevant antibiotics (2-fold dilution series). […] The MIC was set at the lowest antibiotic concentration at which no growth was detected. […]

C[C@H]1COc2c(N3CCN(C)CC3)c(F)cc3c(=O)c(C(=O)O)cn1c23 [Levofloxacin, levofloxacin]
minimum inhibitory concentration (MIC), Standard (P. aeruginosa 77 recovered by standard plating): ¼S
minimum inhibitory concentration (MIC), Sucrose (P. aeruginosa 77 recovered through sucrose (Method 2)): ¼S
